# According to PubChem BioAssay AID445 (National Center for Advancing Translational Sciences (NCATS), 2006):
# The other results are listed elsewhere or left out. Shown are side measurements of this screen, not its main read-out; they come without a call. Most of these compounds were active or inconclusive in the main read-out, so they are no random draw. The note in brackets gives the kind of curve behind each potency; many fits are weak.
# Assay: IkB Signaling
# Conditions: ABC-DLBCL IkBa-CBG/CBR dual luciferase ratio (green luciferase fused to IkBa over red control in OCI-Ly3 lymphoma cells), 4 h
# Outline: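 Luminescence ratio of IκBα-fused green versus native red beetle luciferase in OCI-Ly3 cells, 4 h post-doxycycline with compound; red signal alone, scaled from basal (0%) to zero light (-100%), flagged nonspecific or cytotoxic effects.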
# [1] = measured here: control luc red channel unless noted
structure (smiles),measurement,setting,value
CCOC(=O)c1ccccc1NC(=O)n1ncc2cc(Cl)ccc21,AC50,[1],"15.8 µM [falling, partial curve]"
Cc1noc(C)c1S(=O)(=O)Nc1ccc(C(=O)Nc2ccc(Br)cc2)cc1,AC50,[1],"15.8 µM [falling, partial curve]"
COc1cc(NC(=O)CCn2cnc3ccccc3c2=O)cc(OC)c1,AC50,[1],"0.631 µM [rising, full curve]"
CCOc1cccc(C(=O)Nc2ccc3oc(-c4cccnc4)nc3c2)c1,AC50,[1],"3.16 µM [falling, full curve]"
CCCCOc1ccc(CNC(=O)c2cc3n(n2)CCCN(Cc2ccc(C)cc2)C3=O)cc1,AC50,[1],"25.1 µM [falling, partial curve]"
CCCCSCCCNC(=O)c1cn(CC)c2ccc(S(=O)(=O)N3CCCCCC3)cc2c1=O,AC50,[1],"3.16 µM [falling, partial curve]"
COc1ccc(OCCn2c(C)nc3cc(C)c(C)cc32)cc1,AC50,[1],"25.1 µM [falling, single point]"
COc1ccc(-c2c(C)nn3c(N4CCN(c5ccccc5)CC4)cc(C)nc23)cc1OC,AC50,[1],"15.8 µM [falling, single point]"
COc1ccc(NC(=O)CC2C(=O)N(c3ccc(F)cc3)C(=O)N2Cc2ccc3c(c2)OCO3)cc1 (stereo unspecified),AC50,[1],"25.1 µM [falling, single point]"
COc1ccc(OC)c(-c2cc(C(=O)Nc3c(C)nn(Cc4ccccc4)c3C)no2)c1,AC50,[1],"15.8 µM [falling, partial curve]"
CCCn1c(=N)c(C(=O)NC2CCCC2)cc2c(=O)n3cccc(C)c3nc21,AC50,[1],"20 µM [falling, single point]"
CSc1ccc(CCNC(=O)c2cnn(-c3ccccc3)c2-n2cccc2)cc1,AC50,[1],"15.8 µM [falling, partial curve]"
CCN(CC)c1cc(C)c2cc(NC(=O)c3cccc(F)c3)ccc2n1,AC50,[1],"10 µM [falling, partial curve]"
Cc1cccc(NC(=O)c2cc(S(=O)(=O)N3CCc4ccccc43)ccc2F)c1C,AC50,[1],"6.31 µM [falling, partial curve]"
COc1ccc(N2CCN(C(=O)C3CCCN(S(=O)(=O)c4ccc5c(c4)CCCN5C(C)=O)C3)CC2)cc1 (stereo unspecified),AC50,[1],"39.8 µM [falling, partial curve, poor fit]"
Cc1ccc(N2C(=O)CSC23C(=O)N(CC(=O)NCCc2ccccc2)c2ccccc23)cc1C (stereo unspecified),AC50,[1],"20 µM [falling, single point]"
COc1ccc(CCNC(=O)c2cnc3ccc(C)cn3c2=O)cc1,AC50,[1],"5.01 µM [rising, partial curve]"
c1ccc(-c2csc(N3CCN(c4ccccn4)CC3)n2)cc1,AC50,measured here: IkB-luc green channel,"39.8 µM [falling, single point]"
same,AC50,measured here: control luc red channel,"15.8 µM [falling, partial curve]"
CC(C)CS(=O)(=O)c1oc(-c2ccc(F)cc2)nc1S(=O)(=O)c1ccccc1,AC50,[1],"5.01 µM [falling, full curve]"
COc1cccc(Cn2nnc(C(=O)Nc3cc(C)ccc3C)c2N)c1,AC50,[1],"12.6 µM [falling, single point]"
COc1ccc(OC)c(C(c2nnnn2C(C)(C)C)N2CCc3ccccc3C2)c1 (stereo unspecified),AC50,[1],"25.1 µM [falling, partial curve]"
CCOc1ccccc1CNC(=O)Cn1c(-c2ccccc2)cc(C(C)=O)c1C,AC50,[1],"39.8 µM [falling, single point]"
O=C(Cn1c(=O)n(Cc2ccccc2)c(=O)c2sc3ccccc3c21)NCc1ccccc1Cl,AC50,[1],"6.31 µM [rising, single point]"
O=C(NC1CC(=O)N(c2cccc(F)c2)C1)c1ccc(S(=O)(=O)N2CCCC2)cc1 (stereo unspecified),AC50,[1],"3.98 µM [falling, single point]"
Cc1ccc2nc(NC(=O)CSc3nccn3Cc3ccc(Cl)cc3)sc2c1,AC50,[1],"39.8 µM [falling, single point]"
Fc1ccc(Nc2nc(N3CCOCC3)c3ccccc3n2)cc1,AC50,[1],"20 µM [falling, partial curve]"
COc1ccc(C(=O)c2oc3ccccc3c2NC(=O)COc2ccccc2)cc1,AC50,[1],"39.8 µM [falling, single point]"
COc1ccc(CCNC(=O)c2sc3nc4n(c(=O)c3c2C)CCCC4)cc1OC,AC50,[1],"6.31 µM [falling, partial curve]"
Cc1ccc(C)c(-n2nnnc2Sc2nnnn2-c2ccccc2)c1,AC50,[1],"15.8 µM [falling, partial curve]"
CC1=CC(C)=Nc2ccc(C)cc2N1,AC50,[1],"12.6 µM [falling, partial curve]"

# An excerpt of these results, with tabs:
structure (smiles)	measurement	setting	value
COc1ccc(CCNC(=O)c2sc3nc4n(c(=O)c3c2C)CCCC4)cc1OC	AC50	[1]	6.31 µM [falling, partial curve]
Cc1ccc(C)c(-n2nnnc2Sc2nnnn2-c2ccccc2)c1	AC50	[1]	15.8 µM [falling, partial curve]
